{"source": "patent US10952961B2", "about": "“Implants and constructs including hollow fibers” (priority 2015, dated 2021)", "key": {"[1]": {"assay": "Saturated drug solutions in normal saline used to fill hollow fibers", "format": "physicochemical"}, "[2]": {"assay": "Fluorescein release from polypropylene hollow fibers on filter substrate or agar plate", "settings": "elution distance versus time on agar plate"}}, "note": "At least one compound was matched to its structure with a doubt left."}
{"compound": "O=C1OC2(c3ccc(O)cc3Oc3cc(O)ccc32)c2ccccc21", "note": "[fluorescein, fluorescein sodium]", "values": [{"measurement": "concentration of saturated solution", "setting": "[1]", "value": "1e+06", "unit": "µg/mL"}, {"measurement": "release kinetics, power law exponent", "setting": "[2]", "value": 0.47}]}
